The assay deals with T1, mouse CRY1 1-496 (PHR) (mouse) (UniProt P97784).
T1 sequence: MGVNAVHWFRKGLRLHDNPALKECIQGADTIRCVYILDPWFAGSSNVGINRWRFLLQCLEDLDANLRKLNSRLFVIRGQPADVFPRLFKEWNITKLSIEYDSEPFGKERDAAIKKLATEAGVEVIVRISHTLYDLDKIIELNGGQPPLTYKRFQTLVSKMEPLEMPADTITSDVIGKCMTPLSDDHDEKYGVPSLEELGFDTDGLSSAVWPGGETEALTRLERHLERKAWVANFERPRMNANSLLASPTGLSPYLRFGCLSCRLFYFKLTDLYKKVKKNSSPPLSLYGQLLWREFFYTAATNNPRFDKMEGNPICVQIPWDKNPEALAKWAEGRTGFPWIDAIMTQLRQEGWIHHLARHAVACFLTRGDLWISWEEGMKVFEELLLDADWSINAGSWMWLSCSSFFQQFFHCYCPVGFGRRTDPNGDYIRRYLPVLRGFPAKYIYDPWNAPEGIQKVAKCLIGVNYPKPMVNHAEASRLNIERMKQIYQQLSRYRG
The experiment in a line: SEC; PER1 1013-1291, CRY1 1-496 or CRY2 1-512 and WDR5 22-334: equimolar mixture (60 min, 4 °C) or PER1/WDR5 complex pre-formed overnight and then equimolar CRY added for 60 min; dimeric complexes run for comparison; S200 10/300; 25 mM HEPES pH 7.5, 300 mM NaCl, 5% glycerol, 1 mM DTT; both purified. For orientation: Size exclusion chromatography separates by hydrodynamic size, large species first.

Results are given in words; binding and its absence hold for the method and conditions named. Some entries that bind do so weakly or less than the wild type.

Turning to “mouse PER1 1013-1291 (from UniProt O35973 1013-1291) (domain or fragment)”, the binding entry is “binds”.

The values above are taken from PMC13649712.
